# Experimental data taken from the supplement of paper PMC8256030.
# Several values for one entry are separate records, joined by “and”; a condition that tells them apart may be missing. Identical values can stand only once. Counter-ions that a name gives are not always drawn. The list shows a part of the results. Single values are uncertain here, since repeats match poorly.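 HEK293T cells were given each compound shortly before transfection with a reporter in which red mCherry is followed by the SARS-CoV-2 frameshift element and then GFP in the −1 frame, so GFP appears only after frameshifting.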
# Tested on: HEK293T
# Assay: percent viability (nuclei count) relative to control; higher = more viable cells
# Details: 10 µM; 24 h
row,Compound,percent viability
1,C[n+]1cc2c3c(ccc2c2ccc4cc5c(cc4c21)OCO5)OCO3,29.8%
2,CCCCCCCCCCCC[N+](C)(C)CCOc1ccccc1 [domiphen],126%
3,CCC(=O)N[C@H]1CC[C@@H](C(=O)N(C)c2ccc(-c3nc4ccccc4o3)cc2)C1,413%
4,Cc1ccc(Cl)c(OCC(O)CNC(C)(C)C)c1 (stereo not given) [bupranolol],185%
5,CCCCCNC(=N)N/N=C/c1c[nH]c2ccc(OC)cc12,132%
6,CO[C@H]1C[C@@H]2CC[C@@H](C)[C@@](O)(O2)C(=O)C(=O)N2CCCC[C@H]2C(=O)O[C@H]([C@H](C)C[C@@H]2CC[C@@H](OC(=O)C(C)(CO)CO)[C@H](OC)C2)CC(=O)[C@H](C)/C=C(\C)[C@@H](O)[C@@H](OC)C(=O)[C@H](C)C[C@H](C)/C=C/C=C/C=C/1C [Temsirolimus],196%
7,Cc1cnc(C(=O)NCCc2ccc(S(=O)(=O)NC(=O)NC3CCCCC3)cc2)cn1 [glipizide],175% and 311%
8,Cc1ccc(C(=O)Nc2ccc(S(=O)(=O)O)c3cc(S(=O)(=O)O)cc(S(=O)(=O)O)c23)cc1NC(=O)c1cccc(NC(=O)Nc2cccc(C(=O)Nc3cc(C(=O)Nc4ccc(S(=O)(=O)O)c5cc(S(=O)(=O)O)cc(S(=O)(=O)O)c45)ccc3C)c2)c1 [suramin sodium],230% and 183%
9,CCOC(=O)/C=C(C)/C=C/C=C(C)/C=C/c1c(C)cc(OC)c(C)c1C [etretinate],280%
10,C[C@H](CCC(=O)O)[C@H]1CC[C@H]2[C@@H]3CC[C@@H]4C[C@H](O)CC[C@]4(C)[C@H]3C[C@H](O)[C@]12C [deoxycholic acid],193%
11,C=CCc1cc(OC)c(O)c(C(=O)NCCO)c1 [alibendol],89%
12,CN/C(=C\[N+](=O)[O-])NCCSCc1ccc(CN(C)C)o1 [Ranitidine·HCl],213%
13,COc1ccc2cc([C@H](C)C(=O)O)ccc2c1 [naproxen],233%
14,CC(C)(C)N1CCC(c2ccccc2)(c2ccccc2)CC1 [budipine],158%
15,N=C(N)NCCN1CCCCCCC1,139%
16,CCCC(CCC)C(=O)O[C@H]1C[C@H]2CC[C@@H](C1)[N+]2(C)C [Anisotropine Methylbromide],354%
17,CCCCc1ccc2[nH]c(NC(=O)OC)nc2c1 [parbendazole],14.7%
18,Cc1cn([C@H]2C[C@H](F)[C@@H](CO)O2)c(=O)[nH]c1=O [alovudine],362%
19,CC1=C(C)C(=O)C(CCCCC#CCCCC#CCO)=C(C)C1=O [docebenone],311%
20,CC1=C(C(=O)O)N2C(=O)[C@@H](NC(=O)[C@H](N)C3=CCC=CC3)[C@H]2SC1 [cefradine],127%

row,Compound,percent viability
1,CC(=O)OCC1=C(C(=O)O)N2C(=O)[C@@H](NC(=O)Cc3cccs3)[C@H]2SC1 [cefalotin],127%
2,O.O.O.O.O.O.O.O.O.O.O.O.O.O.O.O.O.O.O.O.O=S(=O)([O][Al])OC[C@H]1O[C@@](COS(=O)(=O)[O][Al])(O[C@H]2O[C@H](COS(=O)(=O)[O][Al])[C@@H](OS(=O)(=O)[O][Al])[C@H](OS(=O)(=O)[O][Al])[C@H]2OS(=O)(=O)[O][Al])[C@@H](OS(=O)(=O)[O][Al])[C@@H]1OS(=O)(=O)[O][Al].[Al],179%
3,C=C(C)CNc1ccc(C(C)C(=O)O)cc1 (stereo not given) [alminoprofen],401%
4,C#CC1(O)CC[C@H]2[C@@H]3CCC4=CC(=O)CC[C@@H]4[C@H]3CC[C@@]21CC (stereo not given in full) [norgestrel],152%
5,CC(=O)O[C@@H]1C[C@@H]2CC[C@@]1(C)C2(C)C,240%
6,CCCn1c(=O)c(CCCOC(=O)NC)nc2ccccc21 [bamaquimast],190%
7,O=C1NOCC1/N=C/c1ccc(/C=N/C2CONC2=O)cc1 (stereo not given) [terizidone],226%
8,C[C@]12CCC3=C4CCC(=O)C=C4CC[C@H]3[C@@H]1CC[C@@]2(O)CC#N [dienogest],160%
9,N=C(N)NCc1ccc2c(c1)OCCO2 [guabenxan],177%
10,O=C(Oc1ccccc1C(=O)O)c1ccccc1O [salsalate],363%
11,OC(CCN1CCCC1)(c1ccccc1)C1CCCCC1 (stereo not given) [procyclidine],160%
12,O=C(O)c1cn(C2CC2)c2cc(N3CCNCC3)c(F)cc2c1=O [ciprofloxacin],394% and 134%
13,CC(N)C12CC3CC(CC(C3)C1)C2 (stereo not given),27%
14,C[C@@H]1C[C@H]2[C@@H]3C[C@H](F)C4=CC(=O)C=C[C@]4(C)[C@@]3(F)[C@@H](O)C[C@]2(C)[C@@]1(OC(=O)c1ccco1)C(=O)SCF [fluticasone furoate],247%
15,CCOC(=O)C1=C(C)NC(C)=C(C(=O)OC)C1c1cccc(Cl)c1Cl (stereo not given) [felodipine],91.6% and 257%
16,O=C(OCCN1CCN(c2cccc(C(F)(F)F)c2)CC1)c1ccccc1Nc1ccnc2cc(C(F)(F)F)ccc12 [antrafenine],292%
17,O=S(=O)(c1cccc2cnccc12)N1CCCNCC1,402% and 380%
18,O=C(O)P(=O)(O)O [foscarnet sodium],355%
19,CC1CCCC(C)N1CCCCNC(=O)C(Oc1ccccc1)c1ccccc1 (stereo not given) [oxiramide],199%
20,Cc1ccnc(NS(=O)(=O)c2ccc(N)cc2)n1 [sulfamerazine],213%
